Among the data in patent US20210087281A1 (AGOMAB THERAPEUTICS, published 2021) are binding values, retold here.

The chains behind the UniProt entries cited, without tags or fusion partners. Where a name states a change or a piece, a line headed by the entry shows the natural chain unless it says otherwise. Residues count along the entry.
UniProt P08581: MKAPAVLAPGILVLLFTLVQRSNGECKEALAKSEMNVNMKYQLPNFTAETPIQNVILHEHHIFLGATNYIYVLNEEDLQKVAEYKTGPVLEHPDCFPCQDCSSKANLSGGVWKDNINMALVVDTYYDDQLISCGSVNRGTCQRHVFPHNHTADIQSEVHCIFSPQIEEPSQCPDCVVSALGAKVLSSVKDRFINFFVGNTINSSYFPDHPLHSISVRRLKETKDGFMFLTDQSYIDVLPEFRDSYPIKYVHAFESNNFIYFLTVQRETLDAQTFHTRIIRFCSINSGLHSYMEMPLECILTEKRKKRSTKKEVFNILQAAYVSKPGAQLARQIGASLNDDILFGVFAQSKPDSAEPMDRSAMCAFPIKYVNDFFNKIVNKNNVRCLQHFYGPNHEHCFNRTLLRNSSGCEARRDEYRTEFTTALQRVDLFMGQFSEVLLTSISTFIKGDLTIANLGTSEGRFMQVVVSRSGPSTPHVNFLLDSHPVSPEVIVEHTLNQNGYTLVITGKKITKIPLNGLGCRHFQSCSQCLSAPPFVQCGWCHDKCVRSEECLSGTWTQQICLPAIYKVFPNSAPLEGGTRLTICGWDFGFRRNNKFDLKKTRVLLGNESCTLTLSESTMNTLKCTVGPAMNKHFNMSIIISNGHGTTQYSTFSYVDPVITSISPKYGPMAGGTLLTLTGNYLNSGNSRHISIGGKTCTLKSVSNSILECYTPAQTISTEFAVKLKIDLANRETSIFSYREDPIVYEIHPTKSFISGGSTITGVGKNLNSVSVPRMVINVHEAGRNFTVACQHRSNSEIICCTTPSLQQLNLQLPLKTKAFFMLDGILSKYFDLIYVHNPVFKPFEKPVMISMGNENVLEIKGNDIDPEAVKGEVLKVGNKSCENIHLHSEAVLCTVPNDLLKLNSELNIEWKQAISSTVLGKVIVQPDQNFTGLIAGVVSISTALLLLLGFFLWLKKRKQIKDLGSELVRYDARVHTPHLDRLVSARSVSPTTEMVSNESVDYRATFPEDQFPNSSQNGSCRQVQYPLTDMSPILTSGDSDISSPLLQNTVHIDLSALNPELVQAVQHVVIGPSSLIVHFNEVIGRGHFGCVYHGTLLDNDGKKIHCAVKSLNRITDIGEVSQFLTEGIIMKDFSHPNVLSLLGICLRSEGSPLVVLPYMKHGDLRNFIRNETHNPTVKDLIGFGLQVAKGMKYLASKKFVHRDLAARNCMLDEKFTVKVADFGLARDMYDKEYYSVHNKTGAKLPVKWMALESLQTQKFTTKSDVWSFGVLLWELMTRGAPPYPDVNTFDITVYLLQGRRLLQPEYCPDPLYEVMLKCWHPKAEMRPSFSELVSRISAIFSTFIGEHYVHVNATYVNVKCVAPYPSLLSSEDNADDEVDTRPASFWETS
SEMA-PSI-IPT 1-2 (MET ECD lacking IPT domains 3 and 4): residues 25-741 of P08581
SEMA-PSI (MET ECD lacking IPT domains 1-4): residues 25-562 of P08581
isolated SEMA domain of human MET: residues 27-515 of P08581

What all share (assay): ELISA, MET deletion mutant in solid phase
Background: An ELISA detects its analyte on a solid surface through an enzyme-linked reagent.

The target of test [1] is SEMA-PSI (MET ECD lacking IPT domains 1-4) (human) (UniProt P08581).
Test [2] deals with SEMA-PSI-IPT 1-2 (MET ECD lacking IPT domains 3 and 4) (human) (UniProt P08581).
The target in test [3] is isolated SEMA domain of human MET (human) (UniProt P08581).

Substitutions are numbered along the chain they refer to. No constants are given. Whether binding was seen depends on the method and setting. Some results given as binding are weak or reduced against the parent protein; the word gives no strength.

B1: 76H10 chimeric llama-human IgG1 mAb (antibody, V domains shown)
VH: QLQLVESGGGLVQPGGSLRVSCTASGFTFNTYYMTWVRQAPGKGLEWVSDINSGGGTYYADSVKGRFTISRDNAKNTLYLQMNSLKPEDTALYYCVRVRIWPVGYDYWGQGTQVTVSS
VL: QAVVTQEPSLSVSPGGTVTLTCGLSSGSVTTSNYPGWFQQTPGQAPRTLIYNTNNRHSGVPSRFSGSISGNKAALTITGAQPEDEADYYCSLYTGSYTTVFGGGTHLTVL
notes: llama VH on human IgG1 CH1-CH2-CH3, llama VL on human lambda CL
For the molecule B1, the binding entry in test [1] and in test [2] was “binds” in each case.

B2: 74C8 chimeric llama-human IgG1 mAb (antibody, V domains shown)
VH: EVQLVESGGGLVQPGGSLRLSCAASGFTFRNYHMSWVRQVPGKGFEWISDINSAGGSTYYADSVKGRFTISRDNAKNTLYLEMNSLKPEDTALYYCARVNVWGVNYWGKGTLVSVSS
VL: B1 VL with A2T, N55S, T94P, T99N
notes: as for B1
Consider B2, for which the binding entry in test [1], in test [2] and in test [3] was “binds” each time.

B3: 71G2 chimeric llama-human IgG1 mAb (antibody, V domains shown)
VH: EVQLQESGGGLVQPGGSLRLSCAASGFTFSIYDMSWVRQAPGKGLEWVSTINSDGSSTSYVDSVKGRFTISRDNAKNTLYLQMNSLKPEDTAVYYCAKVYGSTWDVGPMGYGMDYWGKGTLVTVSS
VL: SSALTQPSALSVSLGQTARITCQGGSLGSSYAHWYQQKPGQAPVLVIYGDDSRPSGIPERFSGSSSGGTATLTISGAQAEDEDDYYCQSTDSSGNTVFGGGTRLTVL
notes: as for B1
For the molecule B3, the binding result in test [1], in test [2] and in test [3] was “binds” in each case.

B4: 71A3 chimeric llama-human IgG1 mAb (antibody, V domains shown)
VH: EVQLVESGGGLVQPGGSLRLSCAASGFSFKDYDITWVRQAPGKGLEWVSTITSRSGSTSYVDSVKGRFTISGDNAKNTLYLQMNSLKPEDTAVYYCAKVYATTWDVGPLGYGMDYWGKGTLVTVSS
VL: SYELTQPSALSVTLGQTAKITCQGGSLGSSYAHWYQQKPGQAPVLVIYDDDSRPSGIPERFSGSSSGGTATLTISGAQAEDEGDYYCQSADSSGNAAVFGGGTHLTVL
notes: as for B1
Regarding B4, the binding result in test [1], in test [2] and in test [3] was “binds” throughout.

B5: 71D6 chimeric llama-human IgG1 mAb (antibody, V domains shown)
VH: ELQLVESGGGLVQPGGSLRLSCAASGFTFSSYGMSWVRQAPGKGLEWVSAINSYGGSTSYADSVKGRFTISRDNAKNTLYLQMNSLKPEDTAVYYCAKEVRADLSRYNDYESYDYWGQGTQVTVSS
VL: QPVLNQPSALSVTLGQTAKITCQGGSLGARYAHWYQQKPGQAPVLVIYDDDSRPSGIPERFSGSSSGGTATLTISGAQAEDEGDYYCQSADSSGSVFGGGTHLTVL
notes: as for B1
Consider B5, for which the binding entry in test [1], in test [2] and in test [3] was “binds” in each case.

B6: 71C3 chimeric llama-human IgG1 mAb (antibody, V domains shown)
VH: B5 VH with E1Q, Y32H, G33A, Y54G, V100L, A102F, S105A, N108T, S112A, Y113W
VL: B4 VL
notes: as for B1
B6: the binding result in test [1], in test [2] and in test [3] was “binds” each time.

B7: 71D4 chimeric llama-human IgG1 mAb (antibody, V domains shown)
VH: B5 VH with S31G, A50D, Y54G, E99D, V100M, A102L, D103Y, S105A, S112A, Y113W
VL: B4 VL with Y2S, E3A
notes: as for B1
For the molecule B7, the binding result in test [1], in test [2] and in test [3] was “binds” each time.

B8: 76G7 chimeric llama-human IgG1 mAb (antibody, V domains shown)
VH: QVQLVESGGNLVQPGGSLRLSCAASGFTFSNYYMSWVRQAPGKGLEWVSDIYSDGSTTWYSDSVKGRFTISRDNAKNTLSLQMNSLKSEDTAVYYCARVKIYPGGYDAWGQGTQVTVSS
VL: QAGLTQPPSVSGSPGKTVTISCAGNSSDVGYGNYVSWYQQFPGMAPKLLIYLVNKRASGITDRFSGSKSGNTASLTISGLQSEDEADYYCASYTGSNNIVFGGGTHLTVL
notes: as for B1
As for B8, the binding entry in test [1] and in test [2] was “binds” throughout.

B9: 71G3 chimeric llama-human IgG1 mAb (antibody, V domains shown)
VH: QVQLVESGGGLVQPGGSLRVSCAASGFTFSTYYMSWVRQAPGKGLEWVSDIRTDGGTYYADSVKGRFTMSRDNAKNTLYLQMNSLKPEDTALYYCARTRIFPSGYDYWGQGTQVTVSS
VL: QAVVTQEPSLSVSPGGTVTLTCGLSSGSVTTSNYPGWFQQTPGQAPRTLIYNTNSRHSGVPSRFSGSISGNKAALTIMGAQPEDEADYYCSLYPGSTTVFGGGTHLTVL
notes: as for B1
Turning to B9, the binding entry in test [1] and in test [2] was “binds” in each case.

B10: 71G12 chimeric llama-human IgG1 mAb (antibody, V domains shown)
VH: QVQLQESGGDLVQPGGSLRVSCVVSGFTFSRYYMSWVRQAPGKGLEWVSSIDSYGYSTYYTDSVKGRFTISRDNAKNTLYLQMNSLKPEDTALYYCARAKTTWSYDYWGQGTQVTVSS
VL: EIVLTQSPSSVTASVGGKVTINCKSSQSVFIASNQKTYLNWYQQRPGQSPRLVISYASTRESGIPDRFSGSGSTTDFTLTISSVQPEDAAVYYCQQAYSHPTFGQGTKVELK
notes: llama VH on human IgG1 CH1-CH2-CH3, llama VL on human kappa CL
Take B10: the binding result in test [1] and in test [2] was “binds” throughout.

B11: 72F8 chimeric llama-human IgG1 mAb (antibody, V domains shown)
VH: ELQLVESGGGLVQPGGSLRLSCAASGFTFSNYVMSWVRQAPGKGLEWVSDTNSGGSTSYADSVKGRFTISRDNAKNTLYLQMNSLKPEDTALYYCARSFFYGMNYWGKGTQVTVSS
VL: QSALTQPPSLSASPGSSVRLTCTLSSGNNIGSYDISWYQQKAGSPPRYLLNYYTDSRKHQDSGVPSRFSGSKDASANAGLLLISGLQPEDEADYYCSAYKSGSYRWVFGGGTHVTVL
notes: as for B1
With B11, the binding result in test [1], in test [2] and in test [3] was “binds” each time.
